Results: US10919937B2, “Bicyclic peptide ligands and uses thereof” (BicycleTx Limited, priority 2018, dated 2021)
Like-named read-outs stand apart in the source and are kept apart here. For at least one compound, name, drawing or mass did not settle the structure. *1 amine or outer side, *2 acyl side, *3 side chain or, on linkers, in order; H or OH if unused. Where a SMILES comes first, the peptide text is derived from it. Bridges are numbered along the chain shown (N, C = ends). X5 = O=C(C[*:1])N1CCC(N2CCN(c3nc(N4CCN(C5CCN(C(=O)C[*:2])CC5)CC4)nc(N4CCN(C5CCN(C(=O)C[*:3])CC5)CC4)n3)CC2)CC1; X13 = O=C(C[*:1])N1CCC(Nc2nc(NC3CCN(C(=O)C[*:2])CC3)nc(NC3CCN(C(=O)C[*:3])CC3)n2)CC1

Sequences of proteins named here, by UniProt entry; tags and fusion partners are left off. Residues count along the entry.
UniProt P29317, 24-976, species assumed: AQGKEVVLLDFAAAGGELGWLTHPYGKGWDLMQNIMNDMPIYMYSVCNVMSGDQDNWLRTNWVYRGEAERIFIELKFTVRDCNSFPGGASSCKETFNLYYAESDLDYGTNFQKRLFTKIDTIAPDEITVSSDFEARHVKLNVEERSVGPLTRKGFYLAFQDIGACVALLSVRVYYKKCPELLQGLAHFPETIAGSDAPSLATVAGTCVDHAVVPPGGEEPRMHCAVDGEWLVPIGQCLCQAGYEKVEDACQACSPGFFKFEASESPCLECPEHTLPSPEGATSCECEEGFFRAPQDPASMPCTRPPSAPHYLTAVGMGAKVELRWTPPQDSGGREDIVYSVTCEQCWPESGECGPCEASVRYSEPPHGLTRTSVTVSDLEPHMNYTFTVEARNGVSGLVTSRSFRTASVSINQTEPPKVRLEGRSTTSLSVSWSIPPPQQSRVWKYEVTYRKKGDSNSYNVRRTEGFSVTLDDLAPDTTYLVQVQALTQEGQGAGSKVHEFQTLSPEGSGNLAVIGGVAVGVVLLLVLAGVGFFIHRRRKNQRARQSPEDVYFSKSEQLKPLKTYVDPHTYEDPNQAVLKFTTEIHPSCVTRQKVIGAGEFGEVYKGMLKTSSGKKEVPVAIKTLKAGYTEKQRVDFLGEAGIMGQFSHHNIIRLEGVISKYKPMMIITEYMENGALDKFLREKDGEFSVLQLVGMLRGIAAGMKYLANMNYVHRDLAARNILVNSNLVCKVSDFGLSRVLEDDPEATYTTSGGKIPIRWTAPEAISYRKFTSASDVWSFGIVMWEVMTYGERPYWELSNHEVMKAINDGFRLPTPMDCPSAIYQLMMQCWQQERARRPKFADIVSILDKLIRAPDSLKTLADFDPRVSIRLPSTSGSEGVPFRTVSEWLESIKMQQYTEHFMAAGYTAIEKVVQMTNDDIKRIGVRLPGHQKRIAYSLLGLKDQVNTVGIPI

Target: T1, EphA2 (Homo sapiens, UniProt P29317)
T1 construct: purchased
Assay: EphA2 SPR Assay
Type: binding
Description: SPR Measurements: Non-Fc fusion proteins were biotinylated with EZ-Link™ Sulfo-NHS-LC-Biotin for 1 hour in 4 mM sodium acetate, 100 mM NaCl, pH 5.4 with a 3× molar excess of biotin over protein. The degree of labelling was determined using a Fluorescence Biotin QuantificationKit (Thermo) after dialysis of the reaction mixture into PBS. For analysis of peptide binding, a Biacore T200 10 instrument was used utilising a XanTec CMD500D chip. Streptavidin was immobilized on the chip using standard amine-coupling chemistry at 25° C. with HBS—N (10 mM HEPES, 0.15 M NaCl, pH 7.4) as the running buffer. Briefly, the carboxymethyl dextran surface was activated with a 7 min injection of a 1:1 ratio of 0.4 M 1-ethyl-3-(3-dimethylaminopropyl) carbodiimide hydrochloride (EDC)/0.1 M N-hydroxy succinimide (NHS) at a flow rate of 10 μl/min. For capture of streptavidin, the protein was diluted to 0.2 mg/ml in 10 mM sodium acetate (pH 4.5) and captured by injecting 120 μl onto the activated chip surface. Residual activated groups were blocked with a 7 min injection of 1 M ethanolamine (pH 8.5):HBS—N (1:1). Buffer was changed to PBS/0.05% Tween 20 and biotinylated EphA2 was captured to a level of 500-1500 RU using a dilution of protein to 0.2 μM in buffer. […]

Row | SMILES | Kd (n = 2) [µM] | Kd (n = 2, read-out: Kd) [µM]
1 | CC(C)[C@H](NC(=O)[C@H](CC(=O)O)NC(=O)[C@H](C)N)C(=O)N[C@@H](Cc1c[nH]cn1)C(=O)N[C@H]1CSCC(=O)N2CCC(CC2)Nc2nc3nc(n2)NC2CCN(CC2)C(=O)CSC[C@H](NC(=O)[C@H](Cc2c[nH]c4ccccc24)NC(=O)[C@H](Cc2ccccc2)NC(=O)[C@@H]2CCCN2C(=O)CNC(=O)[C@H](Cc2c[nH]c4ccccc24)NC(=O)[C@@H]2CCCN2C1=O)C(=O)N1CCC[C@H]1C(=O)N[C@@H](C(C)C)C(=O)N[C@@H](CC(N)=O)C(=O)N[C@@H](CCCNC(=N)N)C(=O)N1CCC[C@H]1C(=O)NCC(=O)N[C@H](C(=O)N[C@@H](C)C(=O)O)CSCC(=O)N1CCC(CC1)N3 [I-102] (H-ADVHCPWGPFWCPVNRPGCA-OH; linker 5-12-19 via X13) | > 10 | 
2 | CC(C)[C@H](NC(=O)[C@H](CC(=O)O)NC(=O)[C@H](C)N)C(=O)N[C@@H](Cc1c[nH]cn1)C(=O)N[C@H]1CSCC(=O)N2CCC(CC2)N2CCN(CC2)c2nc3nc(n2)N2CCN(CC2)C2CCN(CC2)C(=O)CSC[C@H](NC(=O)[C@H](Cc2c[nH]c4ccccc24)NC(=O)[C@H](Cc2ccccc2)NC(=O)[C@@H]2CCCN2C(=O)CNC(=O)[C@H](Cc2c[nH]c4ccccc24)NC(=O)[C@@H]2CCCN2C1=O)C(=O)N1CCC[C@H]1C(=O)N[C@@H](C(C)C)C(=O)N[C@@H](CC(N)=O)C(=O)N[C@@H](CCCNC(=N)N)C(=O)N1CCC[C@H]1C(=O)NCC(=O)N[C@H](C(=O)N[C@@H](C)C(=O)O)CSCC(=O)N1CCC(CC1)N1CCN3CC1 [I-101] (H-ADVHCPWGPFWCPVNRPGCA-OH; linker 5-12-19 via X5) |  | < 0.5
